The assay in a line: qHTS Assay to Find Inhibitors of Chronic Active B-Cell Receptor Signaling. The conditions noted are these: ABC-DLBCL IkBa-CBG/CBR reporter, luminescence ratio (green luciferase fused to IkBa over red control in TMD8 lymphoma cells), 4 h. The gist of the method:
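TMD8 human ABC-DLBCL cells with doxycycline-inducible IκBα–green luciferase fusion and unfused red luciferase, in 0.5% FBS medium; compounds up to 46 uM, 4 h at 37C. Green/red luminescence ratio, filter-overlap corrected, fitted to concentration-response curves.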

The mark [1] stands for this setting: measured here: CBR red luminescence, cell number.
[2] abbreviates: measured here: IkBa-CBG green luminescence.

The other results are listed elsewhere or left out. Shown are side measurements of this screen, not its main read-out; they come without a call. The list favours compounds with an active or inconclusive main result. Words in brackets tell the shape of the fitted curve; partial curves, single points and poor fits give uncertain potencies.

In the case of `O=C(Nc1ccc(Cl)cc1)C1CCCN(c2cnccn2)C1` (centres undefined), the AC50 under setting [1] is 11.2 µM [rising, partial curve, poor fit].

Consider `COc1cc(Cl)c(C)cc1NC(=O)COC(=O)c1cnc(C)cn1`, for which, under setting [1], the AC50 was 29.1 µM [rising, single point]. Turning to `CCNc1nc(NCC)nc(OCC(=O)O)n1`, the AC50 under setting [1] is 6.31 µM [rising, single point].

With `O=C(NCCCCc1ccccc1)C1CC(c2cccc(F)c2)=NO1` (centres undefined), under setting [1], the AC50 was 5.62 µM [falling, single point].

As to `O=C(Nc1ccc(Cl)cc1)Nc1ccc(S(=O)(=O)Nc2ncccn2)cc1`, the AC50 under setting [1] was 2.51 µM [rising, partial curve, poor fit]. Same read-out and setting: next, `CC(C)(C)NC(=O)NC(=O)CN1CCN(c2ncc(C(F)(F)F)cc2Cl)CC1`: 2.31 µM [falling, partial curve]. On the same count and under the same terms, next, `Cc1cc(=O)oc2cc(OC(=O)c3ccccc3)ccc12`: 0.282 µM [rising, full curve, poor fit]; `Cc1cc(=O)[nH]c(SCC(=O)c2ccccc2)c1C#N`: 4.47 µM [falling, full curve].

As to `Nc1nc(Nc2ccccc2)sc1C(=O)c1ccccc1`, the AC50 under setting [1] was 11.2 µM [falling, partial curve]. With `c1ccc(CN2CCC(Nc3nc(-c4cccs4)nc4ccccc34)CC2)cc1`, the AC50 under setting [1] is 22.4 µM [falling, single point].

With `CCOc1ccc(N=c2oc3cc(O)ccc3cc2C(=O)NCC2CCCO2)cc1` (centres undefined), under setting [1], the AC50 is 1.3 µM [falling, partial curve]. Same read-out and setting: with `CCSc1nnc(C)n1-c1ccc(C(=O)O)cc1` the figure was 6.51 µM [falling, single point]; with `COC(=O)Cc1[nH]n(-c2nc3ccccc3s2)c(=O)c1C(C)=Nc1ccc(C)cc1`, 7.94 µM [falling, partial curve, poor fit]. For `COc1cc(OC)c2c(c1)OC(=O)CC2c1cc(OC)c(OC)c(OC)c1` (centres undefined), the AC50 under setting [2] was 13 µM [falling, partial curve].

Regarding `Cc1ccccc1OC(=O)c1cccnc1`, the concentration at half-maximal activity (AC50) under setting [1] was 5.01 µM [rising, full curve, poor fit]. Same read-out and setting: next, `Cc1nnc(CN(C)C(=O)c2cc(COc3ccc(C)c(C)c3)on2)o1`: 14.1 µM [falling, partial curve, poor fit]. Regarding `Cc1[nH]n(-c2ccccc2)c(=S)c1C=NCCCN=Cc1c(C)[nH]n(-c2ccccc2)c1=S`, the AC50 under setting [2] was 4.61 µM [falling, single point]. As to `O=C(NCCc1ccco1)C(=O)NCC1OCCCN1S(=O)(=O)c1ccc(F)cc1` (centres undefined), the AC50 under setting [1] is 35.5 µM [rising, single point]. On the same count and under the same terms, next, `CC(=O)SC1CC(=O)N(c2c(C)cccc2C)C1=O` (centres undefined): 7.08 µM [falling, full curve]. The same measure, in the same setting: with `O=C(N=Nc1c(O)[nH]c2ccccc12)c1cccc(S(=O)(=O)Nc2ccccc2Cl)c1` the figure was 4.47 µM [falling, partial curve].

Consider `CCN(CC)C(=O)c1sc(NC(=O)C(C)C)c(C#N)c1C`, for which the AC50 is 31.6 µM [rising, single point] under setting [1] and 1.41 µM [rising, partial curve, poor fit] under setting [2]. As for `Cn1nnnc1SC1CC(=O)N(c2ccccc2)C1=O` (centres undefined), the AC50 under setting [1] was 35.5 µM [falling, single point] and the AC50 under setting [2] is 31.6 µM [rising, partial curve, poor fit]. `CS(=O)(=O)Nc1cccc2cccnc12`: the AC50 under setting [1] was 28.2 µM [rising, single point] and the AC50 under setting [2] was 28.2 µM [falling, single point]. As for `COc1cc(OC)c(NC(=O)C2CCCO2)cc1Cl` (centres undefined), the AC50 under setting [1] was 35.5 µM [rising, single point].

As for `Cc1nnc(NC(=O)c2ccc(Br)cc2)s1`, the AC50 under setting [1] is 0.164 µM [rising, full curve, poor fit]. Still for that read-out and setting: with `C/C(=N\NC(=O)c1cccnc1)c1ccc(OC2OCCOC2Oc2ccc(/C(C)=N/NC(=O)c3cccnc3)cc2)cc1` (centres undefined) the figure was 35.5 µM [falling, single point]; with `COc1cc([N+](=O)[O-])ccc1NC(=O)NNC(=O)c1sccc1C`, 8.91 µM [falling, partial curve]. The same measure, in the same setting: next, `COC(=O)c1sccc1NC(=O)CSCCc1ccccn1`: 12.6 µM [falling, single point]; `CC(C)CC(C(=O)NC(C)(C)C)N(Cc1ccccc1Cl)C(=O)c1snc(C(N)=O)c1N` (centres undefined): 2 µM [rising, partial curve]; `O=C(CCN1C(=O)/C(=C/c2cccs2)SC1=S)NNC(=O)c1cccc(O)c1`: 14.1 µM [falling, partial curve, poor fit].

In the case of `CCOC(=O)C(=CN=C(N)Nc1nc2ccccc2o1)C(=O)OCC`, the AC50 under setting [1] is 1.12 µM [falling, full curve].

`COc1cc(F)c(C2=CC(=O)CC(C)(C)C2)cc1F`: under setting [1], the AC50 was 3.26 µM [rising, partial curve, poor fit]. Same read-out and setting: next, `OCCNc1nc(Nc2cccc(O)c2)nc2ccccc12`: 17.8 µM [falling, single point].

Take `O=c1[nH]c(=O)n(Cc2ccco2)c2c1C(C(F)(F)F)(C(F)(F)F)N=C(Cc1ccccc1)N2`: the AC50 under setting [1] is 3.98 µM [rising, full curve, poor fit]. On the same count and under the same terms, next, `CC1CC(C)CN(CCOc2cccc(Cl)c2Cl)C1` (centres undefined): 18.4 µM [falling, partial curve, poor fit]; `CCOC(=O)C1CCN(S(=O)(=O)c2ccc(-c3cc(C(F)(F)F)n(C)n3)s2)CC1`: 17.8 µM [falling, partial curve, poor fit]. Same read-out and setting: with `CC(=O)n1c2c(c3ccccc31)OC(N)=C(C#N)C2c1ccc(C(C)C)cc1` (centres undefined) the figure was 12.6 µM [falling, partial curve, poor fit]; with `CC1(C)Cc2c(sc(NC(=O)c3ccco3)c2C#N)CO1`, 2.82 µM [rising, partial curve, poor fit].

For `Cc1ccc(C2=NC(C)(C)N=C2SCC(=O)Nc2ccc(Cl)cc2)cc1`, the half-maximal activity concentration (AC50) under setting [1] was 18.4 µM [falling, single point]. Same read-out and setting: next, `O=C(NC1CCCCC1)c1cc(N2C(=O)CCC2=O)ccc1Cl`: 0.224 µM [rising, full curve, poor fit]; `O=C(Nc1nncs1)c1ccc2c(c1)OCO2`: 2.51 µM [falling, full curve]. The same measure, in the same setting: next, `O=C(COc1ccccc1[N+](=O)[O-])Nc1ccc(Br)cc1`: 8.91 µM [rising, full curve, poor fit]; `COc1ccc(/C=N/NC(=O)c2cccnc2)cc1CN1CCCc2ccccc21`: 20 µM [falling, single point]; `Cc1cccc(NC(=O)CSc2nc3ccccc3c(=O)n2CC2CCCO2)c1` (centres undefined): 29.1 µM [falling, single point]. On to `O=C(Nc1ccccc1C(=O)NCc1ccccc1)c1ccco1`, for which the AC50 under setting [1] was 6.51 µM [falling, partial curve, poor fit] and the AC50 under setting [2] is 3.66 µM [rising, partial curve, poor fit]. As to `CCCn1c(=O)[nH]c(=O)c2c1nc(-c1ccc(OC(F)F)c(OC)c1)n2CCOC`, the AC50 under setting [1] was 8.2 µM [rising, single point]. For `C/C(=N\Nc1nncc2ccccc12)c1ccc(C(C)(C)C)cc1`, the AC50 under setting [1] was 0.112 µM [rising, full curve, poor fit].

For `COc1ccc(CN2CCN(Cc3cccn3-c3ncccn3)CC2CCO)c(C)c1C` (centres undefined), under setting [1], the half-maximal activity concentration (AC50) was 0.708 µM [rising, partial curve, poor fit]. For the compound `Cc1nnc(SC(=O)N2c3ccccc3Sc3ccccc32)s1`, under setting [1], the half-maximal activity concentration (AC50) was 8.2 µM [falling, partial curve]. On to `Cc1ccc(NC(=O)CCCc2nc3ccccc3s2)c(O)c1`, for which, under setting [1], the AC50 is 3.16 µM [rising, single point].

With `COc1ccccc1Nc1ccc(C(=O)O)cc1[N+](=O)[O-]`, the AC50 under setting [1] was 5.01 µM [falling, partial curve].

Consider `CC1(c2ccc(Cl)cc2)NC(=O)N(CC(=O)Nc2ccc(F)cc2)C1=O` (centres undefined), for which, under setting [1], the AC50 is 12.6 µM [falling, partial curve, poor fit]. Turning to `O=C(Nc1ccc(Oc2cccc3ccccc23)cc1)c1ccco1`, the AC50 under setting [1] was 2.59 µM [rising, partial curve].

Take `Cc1cc(SCC#N)n2nc(C)c(-c3ccccc3)c2n1`: the AC50 by setting is: under setting [1], 8.91 µM [falling, partial curve]; under setting [2], 2.51 µM [falling, full curve]. Regarding `CCCCSc1ncc(C(=O)OCC)c(N)n1`, the AC50 under setting [1] is 2.59 µM [rising, partial curve, poor fit].

With `CC(C)Cc1cc(C(=O)N2CCC(N3CCC(C(=O)NC4CC4)CC3)CC2)n[nH]1`, the AC50 under setting [1] was 10 µM [falling, partial curve]. On the same count and under the same terms, next, `CC1CCc2c(sc3nc(SCC(=O)NCc4ccco4)nc(N)c23)C1` (centres undefined): 17.8 µM [falling, partial curve]; `COc1ccccc1N1CCN(S(=O)(=O)c2cccs2)CC1`: 32.6 µM [rising, partial curve, poor fit]; `CNC(=O)NC(=O)COC(=O)CCCSc1nc2ccccc2s1`: 9.2 µM [falling, partial curve]. Still for that read-out and setting: with `Cc1cccc(-n2ccc(=O)c(C(=O)O)n2)c1` the figure was 2.82 µM [rising, single point]. On the same count and under the same terms, with `O=C1CCc2cc(S(=O)(=O)NCc3ccccc3)cc3c2N1CC3` the figure was 0.651 µM [rising, full curve, poor fit]; with `CC1CCCCN1C(=O)COC(=O)CNC(=O)c1ccc(Cl)cc1Cl` (centres undefined), 32.6 µM [rising, partial curve, poor fit]; with `Cc1ccc2nc(NC(=O)CC3Oc4ccccc4NC3=O)sc2c1` (centres undefined), 1.41 µM [rising, full curve, poor fit]. Take `COc1ccc(CCNC(=O)c2cc(Nc3ccccc3)nc3ccccc23)cc1OC`: the concentration at half-maximal activity (AC50) under setting [1] is 7.08 µM [falling, full curve, poor fit].
